Source: PubChem BioAssay AID1259274 (Sanger Institute, 2017)
This is one part, drawn at random, of 794 deposited reagents. 11 of them (1.4%) were called active. 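Calls rest on knock-down without drug only; synergy scores with anchor drugs were not used for the essential call.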 Unmarked entries are inactive. No viability above 1 is reported: the scale is capped. Reagent sequences are not shown. The record does not give: the amount of reagent, the time to read-out.

- Screen: 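Kinase knock-downs that cut colorectal cancer cell viability or boost drug killing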 (primary screen)
- Cells: human RKO colorectal cancer cells
- Reagent: siRNA pool against human genes
- Treatment: anchor drugs BYL719 at 1 µM, cetuximab at 5 µg/ml or trametinib at 10 nM; DMSO vehicle as the no-drug arm
- Detection: 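Viability as fraction of non-targeting pool 2 control, averaged across replicates, robust z-score for single knock-down, and a combination synergy score per anchor drug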
- Direction: viability z-score, siRNA alone: higher = more viable cells; low values mean essential gene; viability, siRNA alone, vehicle: higher = more viable cells; synergy score with BYL719 and synergy score with Trametinib and synergy score with Cetuximab: higher = stronger combined killing with the drug
- Active means: 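Essential when the robust viability z-score with siRNA only falls below -3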
- Meaning of the calls: active = essential when knocked down alone; inactive = no change alone

gene knocked down	viability z-score, siRNA alone	viability, siRNA alone, vehicle (fraction of control)	synergy score with BYL719	synergy score with Trametinib	synergy score with Cetuximab
MAPK9 (mitogen-activated protein kinase 9)	-0.011	0.897	-0.0859	-0.142	-0.0507
PSKH2 (protein serine kinase H2)	-0.88	0.823	-0.0924	-0.239	-0.0841
LYN (LYN proto-oncogene, Src family tyrosine kinase)	0.347	0.928	-0.0519	-0.297	-0.0723
GALK1 (galactokinase 1)	-0.0169	0.897	-0.0926	-0.13	0.092
COMMD3 (COMM domain containing 3)	0.0885	0.906	-0.21	-0.256	-0.00297
ZC3H11A (zinc finger CCCH-type containing 11A)	-0.0308	0.895	-0.0147	0.0386	0.0861
MAP3K15 (mitogen-activated protein kinase kinase kinase 15)	0.745	0.962	-0.0552	-0.182	-0.0201
PAK1 (p21 (RAC1) activated kinase 1)	-1.88	0.737	-0.0578	-0.138	-0.189
PKN3 (protein kinase N3)	-0.262	0.876	-0.246	-0.0914	-0.124
NRK (Nik related kinase)	1.07	0.99	0.0241	-0.0649	0.0177
EPHB1 (EPH receptor B1)	0.301	0.924	-0.119	-0.18	-0.0607
PIP4K2C (phosphatidylinositol-5-phosphate 4-kinase type 2 gamma)	0.41	0.933	-0.0319	-0.117	-0.0669
PTPRU (protein tyrosine phosphatase receptor type U)	-1.38	0.779	-0.108	-0.197	-0.138
GRK1 (G protein-coupled receptor kinase 1)	1.19	1	-0.045	-0.206	0.0512
STK3 (serine/threonine kinase 3)	-0.73	0.836	-0.00909	-0.195	-0.101
DAPK1 (death associated protein kinase 1)	0.791	0.966	0.0261	-0.0638	0.0167
SBK1 (SH3 domain binding kinase 1)	1.19	1	-0.0247	-0.105	0.0742
PFKM (phosphofructokinase, muscle)	0.544	0.945	-0.0637	0.0085	0.107
STK26 (serine/threonine kinase 26)	0.455	0.937	0.0862	-0.0801	-0.0518
NUP107 (nucleoporin 107)	-2	0.727	-0.0155	-0.125	0.109

Reprinted from above for reference:
gene knocked down	viability z-score, siRNA alone	viability, siRNA alone, vehicle (fraction of control)	synergy score with BYL719	synergy score with Trametinib	synergy score with Cetuximab
PAK1 (p21 (RAC1) activated kinase 1)	-1.88	0.737	-0.0578	-0.138	-0.189
PKN3 (protein kinase N3)	-0.262	0.876	-0.246	-0.0914	-0.124
NRK (Nik related kinase)	1.07	0.99	0.0241	-0.0649	0.0177
